# Earlier results as cited in patent US11426568B2, “Applicators for treating vaginal dryness” (The Procter & Gamble Company, priority 2018, dated 2022).
# For at least one compound, name, drawing or mass did not settle the structure.
# Tested on: vagina of menopausal women with vaginal atrophy
# Conditions: 12 weeks systemic ET treatment
smiles,measurement,value
C[C@]12CC[C@@H]3c4ccc(O)cc4CC[C@H]3[C@@H]1CC[C@@H]2O [estradiol],"Effect on atrophic changes in the vagina (reduced pH, increased VMI)",reversed atrophic changes in the vagina
